The results in this text go back to PMC5744064, “Regulation of Class A β-Lactamase CzoA by CzoR and IscR in Comamonas testosteroni S44” (Frontiers in Microbiology, 2017).

The exact form of at least one protein or probe is not confirmed.

The target in the data set is IscR (Fe-S cluster assembly regulator) (Comamonas testosteroni S44) (UniProt A0A0L7MDB4). In words: EMSA. Conditions: 1.8 pmol probe; recombinant protein; residues 1-178; protein details: His6 (pET-28a(+)); label: 5'-FAM (EMSA-CzoR-F); probe letters rebuilt from the primers and the genome. In general terms: In EMSA bound probe runs differently from free probe, usually more slowly.

“CAAGGCGTTCAGTGGTAGCTGCATATCTCAATCAAGATAAAAGTTTTTCTAATGGATCGTGTCAATTATTACTGCTGGTTCGTAGGGATCTACCGATTTATGCTTCAAACCATGGCAGTTAACCAAAAGAGGATCTTATGCAACGACGCAGCATGCTGACAACAGGACTGGCCTTGGGTCTGGGGGCCTGGGGACTGAGCGGCTGTGCTTTTATCTCCAAGCAGCAAGCCGCAGCAGCGAGAACATTGAGCGACGAGT (double strand) [czoR-czoA intergenic region / PczoA, 259 bp]”: the binding result was “binds”.
